The target of the assay is p27^Kip1 (UniProt P46527). The assay can be described thus: co-IP; HEK 293 cells transfected with p27 and/or ATAT1-GFP for 24 h; lysis in IP buffer (150 mM NaCl, 50 mM HEPES pH 7.5, 1% NP-40, 1 mM EDTA, 2.5 mM EGTA, 0.1% Tween20, 10% glycerol); p27 immunoprecipitated from 500 µg of protein with 3 µg antibody on protein-A sepharose; bound ATAT1 detected with anti-GFP antibodies.

Amino acid sequences for entries named in this document (tags omitted).
UniProt P46527: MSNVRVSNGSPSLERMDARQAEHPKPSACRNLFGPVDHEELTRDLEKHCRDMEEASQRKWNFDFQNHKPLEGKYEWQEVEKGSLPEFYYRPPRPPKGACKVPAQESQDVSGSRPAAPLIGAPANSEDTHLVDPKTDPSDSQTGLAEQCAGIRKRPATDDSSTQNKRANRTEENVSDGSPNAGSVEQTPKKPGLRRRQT
UniProt Q5SQI0: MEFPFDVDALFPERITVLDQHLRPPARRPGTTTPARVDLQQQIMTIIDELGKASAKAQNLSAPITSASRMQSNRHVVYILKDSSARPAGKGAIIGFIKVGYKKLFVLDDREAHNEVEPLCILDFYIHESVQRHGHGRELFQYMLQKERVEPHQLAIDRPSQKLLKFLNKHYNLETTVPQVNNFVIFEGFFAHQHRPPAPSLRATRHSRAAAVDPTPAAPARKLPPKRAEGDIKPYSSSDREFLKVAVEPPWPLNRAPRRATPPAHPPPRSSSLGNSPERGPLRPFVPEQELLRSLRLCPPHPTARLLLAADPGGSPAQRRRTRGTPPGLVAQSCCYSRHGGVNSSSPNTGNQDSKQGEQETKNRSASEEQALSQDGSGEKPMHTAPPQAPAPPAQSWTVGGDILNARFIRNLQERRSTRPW

No constants are given. Whether binding was seen depends on the method and setting. Binding seen in cells or lysates may run through a third protein. Some binding calls cover weakened binding; strength is not graded here.

Turning to “α-tubulin acetyltransferase (ATAT1) fused to GFP (from UniProt Q5SQI0 1-421) (enzyme)”, the binding entry is recorded as “binds”.

Values taken from publication PMC8119952.
